From PubChem BioAssay AID1487 (National Center for Advancing Translational Sciences (NCATS), 2009)
“And” between values parts separate entries of the source, which are not always exact repeats. Equal entries are not always repeated. Some of the results follow. The main result of the screen is listed elsewhere. These columns were measured beside it and carry no call. Most of these compounds were active or inconclusive in the main read-out, so they are no random draw. The note in brackets gives the kind of curve behind each potency; many fits are weak.

Experiment: qHTS Assay for Modulators of Lamin A Splicing
Details: HeLa LMNA splicing GFP/RFP minigene ratio, 48 h
In short: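 S3 HeLa cells stably expressing lamin A-EGFP splicing minigene plus DsRed2, 600 cells/well, 48 h compound exposure at 37C. Laser-scanning cytometry; analysed as GFP (500-530 nm)/RFP (575-640 nm) total intensity ratio; 0.5% DMSO vehicle.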

[1] = measured here: RFP viability control channel
[2] = measured here: GFP splicing reporter channel

Row | Structure (SMILES) | AC50 [1] | AC50 [2]
1 | O=C(NCc1ccco1)c1cc(NS(=O)(=O)c2cccc([N+](=O)[O-])c2)ccc1O | 7.08 µM [rising, full curve, poor fit] | –
2 | CCOC(=O)c1cnn(-c2nc(SC)nc3sc4c(c23)CCCC4)c1N | 35.5 µM [rising, single point] | –
3 | CCN(CC)CC#CCC(OC)(c1ccccc1)c1ccccc1 | 0.01 µM [falling, full curve, poor fit] | 25.1 µM [falling, single point]
4 | Nc1nc(N)c2nc(-c3ccccc3)c(N)nc2n1 | 14.1 µM [falling, single point] and 3.55 µM [rising, partial curve, poor fit] and 44.7 nM [rising, full curve] | 14.1 µM [falling, single point] and 1.26 µM [falling, single point]
5 | N=C(N)SCc1nc2ccccc2c(=O)n1-c1ccccc1Cl | 14.1 µM [falling, partial curve, poor fit] | 14.1 µM [falling, single point]
6 | O=C(COc1ccccc1)NC(=S)Nc1ccc2c(c1)Cc1ccccc1-2 | 0.112 µM [rising, full curve, poor fit] | 0.126 µM [rising, full curve, poor fit]
7 | Cc1[nH]n(-c2ncc(-c3ccccc3)s2)c(=O)c1C(c1ccc(Cl)cc1)C(C#N)C#N (stereo unspecified) | 10 µM [rising, partial curve, poor fit] | –
8 | Cc1cc(=O)oc2cc(OCC(=O)N3c4ccccc4CC3C)ccc12 (stereo unspecified) | 11.2 µM [rising, partial curve] | –
9 | C=CCNC(=O)c1onc(CCl)c1C(=O)OC | 35.5 µM [rising, single point] | –
10 | CCS(=O)(=O)N1CCC(c2nc(-c3ccc(C(F)(F)F)cc3)no2)CC1 | 7.08 µM [rising, partial curve] | –
11 | CN(C)N=Nc1ccc(S(N)(=O)=O)cc1 | 0.02 µM [falling, full curve, poor fit] | –
12 | O=C(Nc1ccc2nc(SCc3ccccc3)sc2c1)c1ccccc1F | 3.16 µM [rising, single point] | –
13 | Cc1c(C=O)c2ccccn2c1C(=O)c1ccc(Cl)c([N+](=O)[O-])c1 | 35.5 µM [rising, single point] | –
14 | COc1cc(C(=O)Nc2ccc(S(=O)(=O)N(C)c3ccccc3)cc2)cc(OC)c1OC | 10 µM [rising, partial curve] | 15.8 µM [rising, partial curve]
15 | COc1ccc(Cl)cc1NC(=O)Cn1nc(-c2ccc(C)cc2)n(C)c1=S | – | 15.8 µM [rising, single point]
16 | Cc1onc(-c2c(F)cccc2Cl)c1C(=O)N1CCCc2ccccc21 | 12.6 µM [rising, single point] | –
17 | CCOc1ccc(C(=O)N/N=C/c2cccc3cccnc23)cc1 | 31.6 µM [falling, single point] | 20 µM [falling, single point]
18 | COc1cccc(O)c1O | 3.16 µM [falling, partial curve] | 7.94 µM [falling, partial curve]
19 | Nc1nc(NCCCN2CCOCC2)nc(NCc2ccccc2)c1[N+](=O)[O-] | 20 µM [falling, partial curve, poor fit] | –
20 | COc1ccccc1CNc1nc(-c2ccc(N(C)C)cc2)nc2ccccc12 | 35.5 µM [falling, single point] | 25.1 µM [falling, single point]
21 | Cn1c(=O)cc(OCC(=O)NCCCN2CCN(c3cccc(Cl)c3)CC2)c2ccccc21 | 14.1 µM [rising, single point] | –
22 | N#Cc1cccc(-c2cn(S(=O)(=O)c3ccc(Cl)cc3)nc2N)c1 | 12.6 µM [rising, partial curve] | –
23 | CCC(=O)Nc1c(C)n[nH]c1C | 25.1 µM [falling, partial curve, poor fit] | –
24 | O=CCCCC=O | 0.00562 µM [rising, full curve, poor fit] | 1 µM [falling, single point]
25 | CCN(CC)C(=O)CSc1nnc(-c2cc3ccccc3cc2O)n1CC | 0.447 µM [falling, partial curve, poor fit] | 0.316 µM [falling, full curve, poor fit]
26 | O=C(NC(=S)NNC(=O)c1ccccc1O)c1ccco1 | 15.8 µM [rising, partial curve] | –
27 | Cc1cccc(C)c1NC(=O)CSc1nc(C)c(CC(=O)c2ccc(Br)cc2)c(C)c1C#N | 1.41 µM [falling, full curve] | 1.58 µM [falling, partial curve]
28 | CC12CCC(c3nnc(SCc4ccc(Cl)cc4)nc31)C2(C)C (stereo unspecified) | 35.5 µM [rising, single point] | 35.5 µM [rising, single point]

Whole records, quoted from the list.
Cc1[nH]n(-c2ncc(-c3ccccc3)s2)c(=O)c1C(c1ccc(Cl)cc1)C(C#N)C#N (stereo unspecified) in the list: AC50 [1]: 10 µM [rising, partial curve, poor fit]
O=C(NC(=S)NNC(=O)c1ccccc1O)c1ccco1 in the list: AC50 [1]: 15.8 µM [rising, partial curve]

Next structures

Row | Structure (SMILES) | AC50 [1] | AC50 [2]
29 | Cc1cc(NC(=O)CSc2ncn[nH]2)no1 | 0.158 µM [falling, full curve, poor fit] | –
30 | CCN1C(=O)/C(=C/c2ccc(C)s2)SC1=Nc1ccc(OC)cc1 | – | 12.6 µM [falling, single point]
31 | CC(=O)Nc1cccc(Oc2ncnc3scc(-c4ccc(C)cc4)c23)c1 | 10 µM [rising, partial curve, poor fit] | –
32 | CSC1=NCCN1C(=O)c1ccc(C)cc1 | – | 11.2 µM [rising, partial curve]
33 | Cc1ccccc1N/C(SCc1ccc(Cl)cc1)=C(/C#N)C(=O)NCc1ccco1 | 20 µM [rising, single point] | 17.8 µM [rising, partial curve, poor fit]
34 | COc1cc(CO)ccc1OCc1nnnn1-c1ccc(C)cc1 | – | 1 µM [rising, full curve, poor fit]
35 | Cc1cc(C)n(CC(O)CN2c3ccccc3Sc3ccccc32)n1 (stereo unspecified) | – | 11.2 µM [rising, partial curve, poor fit]
36 | Cc1cccc(Nc2nc(N)c(C#N)c(CC#N)c2C#N)c1 | – | 0.891 µM [rising, partial curve]
37 | CC(=O)c1ccc(OCC(O)CN(C)Cc2cccs2)cc1 (stereo unspecified) | 11.2 µM [rising, partial curve, poor fit] | 11.2 µM [rising, partial curve, poor fit]
38 | COc1ccc(CC(=O)NCc2nc3cccnc3n2Cc2ccc(C)cc2)cc1 | 35.5 µM [falling, single point] | –
39 | O=C(Nc1ccc2c(c1)nc1n2CCCCC1)c1cc(S(=O)(=O)N2CCOCC2)ccc1Cl | 7.08 µM [rising, full curve] | 3.55 µM [rising, single point]
40 | COC(=O)c1ccc(NC(=O)C(=O)NCCc2sc(-c3cccc(F)c3)nc2C)cc1 | 22.4 µM [falling, single point] | 12.6 µM [falling, partial curve, poor fit]
41 | Brc1cc(/C=N/n2cnnc2)oc1Br | 2.82 µM [rising, partial curve, poor fit] | 1.78 µM [rising, partial curve, poor fit]
42 | CCOC(=O)c1ccc(NC(=O)CCc2nc(-c3ccccc3Cl)no2)cc1 | 10 µM [rising, single point] | –
43 | CC(=O)c1ccc(NC(=O)C2CCCN(S(=O)(=O)c3ccc4c(c3)CCCN4C(C)=O)C2)cc1 (stereo unspecified) | – | 0.02 µM [falling, full curve, poor fit]
44 | Cc1nn2cc(-c3cccc(Cl)c3)cnc2c1Br | 2.24 µM [falling, partial curve, poor fit] | 0.00355 µM [falling, full curve, poor fit]
45 | CC(NC(c1ccccc1)c1ccccc1)C(=O)N1CCCc2ccccc21 (stereo unspecified) | 14.1 µM [rising, partial curve] | 1.58 µM [rising, full curve, poor fit]
46 | CCCCn1c(=O)c(C(=O)OCC)c(O)c2ccccc21 | 0.00355 µM [falling, full curve, poor fit] | –
47 | COc1cccc(OC(C)c2ccnc3nc(/N=C/N(C)C)nn23)c1 (stereo unspecified) | – | 25.1 µM [rising, single point]
48 | CCOC(=O)C1=C(CNCCc2ccc(Cl)cc2)NC(=O)NC1c1cccc([N+](=O)[O-])c1 (stereo unspecified) | – | 0.141 µM [rising, full curve, poor fit]
49 | O=C(CSc1ncccn1)N/N=C/c1ccccc1[N+](=O)[O-] | 0.00398 µM [falling, full curve, poor fit] | –
50 | CCCCN(C(=O)CSc1cc(C)c2ccc(OC)cc2n1)c1c(N)n(Cc2ccccc2)c(=O)[nH]c1=O | 35.5 µM [rising, single point] | –
51 | COc1ccccc1-c1nnc(SCC(=O)NC2CCCCC2)o1 | 0.282 µM [rising, full curve] | –
52 | Cc1cccc(-c2cc(NC(=O)C(C)(C)C)n(-c3ccccc3)n2)c1 | 25.1 µM [rising, single point] | –
53 | O=C(Nc1nc2ccccc2n1CCOc1ccc(Cl)cc1)c1ccco1 | 12.6 µM [rising, single point] | –
54 | CCCCOc1ccc(C(=O)CCN2CCCCC2)cc1 | 0.631 µM [falling, full curve] | 282 nM [falling, full curve, poor fit] and 20 µM [rising, partial curve, poor fit]
55 | Cc1nc2nc(SCc3ccc(F)cc3Cl)nn2c(C)c1Cc1ccccc1 | 35.5 µM [falling, partial curve] | 35.5 µM [falling, single point]
